Experimental data taken from US20240025972A1.
These are yes or no findings as the source states them, for the method shown. Some results given as binding are weak or reduced against the parent protein; the word gives no strength.

The chains behind the UniProt entries cited, without tags or fusion partners. Where a name states a change or a piece, a line headed by the entry shows the natural chain unless it says otherwise.
UniProt Q9NZQ7: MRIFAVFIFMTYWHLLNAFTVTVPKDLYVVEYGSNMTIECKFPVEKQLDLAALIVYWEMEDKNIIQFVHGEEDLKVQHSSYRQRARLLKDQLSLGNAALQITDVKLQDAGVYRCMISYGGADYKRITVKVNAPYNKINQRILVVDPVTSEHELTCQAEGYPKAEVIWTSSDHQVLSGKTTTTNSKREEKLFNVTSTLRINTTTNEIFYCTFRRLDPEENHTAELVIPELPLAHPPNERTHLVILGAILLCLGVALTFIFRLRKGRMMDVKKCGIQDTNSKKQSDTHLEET

Molecular target: T1, PD-L2
T1 sequence: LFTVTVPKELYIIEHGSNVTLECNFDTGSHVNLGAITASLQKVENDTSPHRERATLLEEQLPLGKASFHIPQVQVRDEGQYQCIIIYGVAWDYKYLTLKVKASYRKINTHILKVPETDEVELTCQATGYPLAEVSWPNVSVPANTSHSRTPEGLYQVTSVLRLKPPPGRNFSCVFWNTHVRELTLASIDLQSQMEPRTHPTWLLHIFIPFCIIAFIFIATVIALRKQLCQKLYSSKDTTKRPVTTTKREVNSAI
Experiment: cell-surface binding assay: fluorescently labeled query protein on cells transiently expressing the target, fluorescence imaging, normalized fluorescence intensity

binding: binds
Substance: PD-L1/CD274 recombinant biotinylated ectodomain tetramerized with fluorescent streptavidin (from UniProt Q9NZQ7 19-238; P22629 37-163) (ligand)
